Several values for one entry are separate records, joined by “and”; a condition that tells them apart may be missing. Identical values can stand only once. The whole screen tested about 400,000 compounds, of which about 3,700 (0.93%) were called active. This list was built around the results that the source calls inconclusive (neither active nor inactive); the mix of calls is not that of the screen. Calls follow the shape of the dose curve; as a rule, active = well fitted inhibition curve with a large enough effect; inconclusive = small, poorly fitted or top-dose-only effect, or another doubt; inactive = no such curve, though single readings can be large or run the other way. Potencies of inconclusive entries are doubtful fits and often do not repeat. A structure can be active in one record and inactive in another.
Each compound was assayed against Vitamin D3 receptor (Homo sapiens) (UniProt P11473) (assay: Inhibitors of the vitamin D receptor (VDR): qHTS). Details: VDR-SRC2-3 peptide fluorescence polarization, 2 h; max response, negative = inhibition: active compounds read low.
Description: The vitamin D receptor (VDR) is a ligand-activated transcription factor and is partially responsible for the regulation of the endocrine system. This includes the transcriptional regulation of genes involved in the production of the parathyroid hormone (PTH) and the regulation of the blood calcium level. High levels of PHT can cause hypercalcemia in the case of primary and tertiary hyperparathyroidism. The VDR-mediated gene regulation, activated by its ligand 1,25-dihydroxyvitamin D3 (1,25-(OH)2D3), is governed by the recruitment of coactivators. Our hypothesis is that small molecules, with the ability to inhibit the interaction between VDR and certain coactivators, are able to selectively modulate VDR-mediated transcription. Our long term objective is the application these VDR-coactivator inhibitors to study the role of VDR-coactivator binding for specific VDR regulated genes. Ultimately, these molecules can be developed into new treatments for hypercalcemic hyperparathyroidism. No small molecule or non-peptide inhibitors are known for the VDR-coactivator interaction.
In a collaboration between the University of Wisconsin, Milwaukee and the NIH Chemical Genomics Center (NCGC) a HTS-compatible enzymatic assay was developed. The assay uses fluorescence polarization as its read-out to measure the inhibition between VDR and coregulator peptide SRC2-3 exerted by small molecules. This assay was used to screen the NIH Molecular Libraries Small Molecule Repository (MLSMR).
NIH Chemical Genomics Center [NCGC]
NIH Molecular Libraries Probe Centers Network [MLPCN]
Assay Submitter (PI): Alexander Arnold, University of Wilwaukee
Both solutions are kept at 4 deg C and protected from light and dispensed using a Kalypsys dispenser. Then 23nl of compounds and controls are added with Kalypsys pintool. […] Plate is centrifuged at 1000 RPM for 15 seconds to remove any residual bubbles. The plate is then incubate at ambient room temperature for 2 hours.
% is scaled to controls: 0 for no effect and ±100 for the full control effect; potency is read from the fitted curve at half-maximal effect.

Sequences of proteins named here, by UniProt entry; tags and fusion partners are left off. A change or cut given only in a name is not applied to a line headed by its entry.
UniProt P11473: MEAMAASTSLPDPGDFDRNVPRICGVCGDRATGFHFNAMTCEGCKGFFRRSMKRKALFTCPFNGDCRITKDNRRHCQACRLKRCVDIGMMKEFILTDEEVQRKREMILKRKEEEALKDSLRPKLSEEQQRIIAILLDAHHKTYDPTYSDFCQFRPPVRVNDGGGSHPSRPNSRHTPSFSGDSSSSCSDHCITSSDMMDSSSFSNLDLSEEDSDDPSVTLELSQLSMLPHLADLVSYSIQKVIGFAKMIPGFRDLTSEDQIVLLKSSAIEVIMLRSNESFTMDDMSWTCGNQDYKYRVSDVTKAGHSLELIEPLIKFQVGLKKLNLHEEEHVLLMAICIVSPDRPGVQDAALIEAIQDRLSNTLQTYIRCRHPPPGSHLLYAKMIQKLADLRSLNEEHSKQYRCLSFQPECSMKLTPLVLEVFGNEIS

Row | SMILES | Potency | max response, negative = inhibition
1 | CC(=O)Nc1ccc(C=C2C(=O)NC(=O)NC2=O)cc1 | inconclusive: 63.1 µM [inhibitor, single point] | –
2 | CSc1ccc(C(=O)C2CCCN(Cc3cc4ccccc4[nH]3)C2)cc1 (stereo unspecified) | active: 89.1 µM | –
3 | CC(n1cc(C[C@H](N)C(=O)O)c2ccccc21)n1cc(C[C@H](N)C(=O)O)c2ccccc21 | inconclusive: 89.1 µM [inhibitor, partial curve, poor fit] | –
4 | CC(=O)[O][Sn]([c]1ccccc1)([c]1ccccc1)[c]1ccccc1 | active: 2.24 µM | –
5 | C=CCn1c(O)c(C(CC)=Nc2ccc(N(C)C)cc2)c(=O)[nH]c1=O | inconclusive: 56.2 µM [inhibitor, partial curve, poor fit] | –
6 | CCCCCn1c(SCCCC)nc2c1c(=O)[nH]c(=O)n2C | inconclusive: 79.4 µM [inhibitor, partial curve, poor fit] | –
7 | NS(=O)(=O)c1ccc(-c2ccc(C=C3C(=O)NC(=O)NC3=O)o2)cc1 | active: 44.7 µM | –
8 | Cc1[nH]nc2ccc(-c3cncc(OC[C@@H](N)Cc4c[nH]c5ccccc45)c3)cc12 | inconclusive: 2.51 µM [inhibitor, full curve] | –
9 | CN1C(=O)/C(=C/c2cccn2-c2ccc3ccccc3c2)C(=O)NC1=S | active: 44.7 µM | –
10 | O=C(CS(=O)C(c1ccccc1)c1ccccc1)NO (stereo unspecified) | – | inactive: -0.427% and inactive: -10.5%
11 | COc1ccc(CN2CCCC(C(=O)c3ccc(Cl)cc3)C2)c(OC)c1 (stereo unspecified) | inconclusive: 89.1 µM [inhibitor, single point] | –
12 | O=[N+]([O-])c1ccccc1CNCCc1c[nH]c2ccccc12 | – | inactive: -20.8%
13 | Cc1ccc(OCCOc2cccc(C=C3C(=O)NC(=O)NC3=O)c2)cc1 | active: 39.8 µM | –
14 | O=c1c(O)c(-c2ccc(O)c(O)c2)oc2c(O)c(O)cc(O)c12 | active: 25.1 µM | –
15 | CC1=C(O)C(=O)[C@H]2O[C@@H]2C1=O | inconclusive: 35.5 µM [inhibitor, single point] | –
16 | C[C@@H]1Cc2c(Cl)cc(C(=O)N[C@H](Cc3ccccc3)C(=O)O)c(O)c2C(=O)O1 | – | inactive: -7.35%
17 | CCOC(=O)C1=CC(=C2C(=O)N(CC)C(=S)N(CC)C2=O)c2ccccc2O1 | inconclusive: 35.5 µM [inhibitor, full curve, poor fit] | –
18 | O=C(c1csnn1)N1CCC[C@@]2(CCN(Cc3ccncc3)C2)C1 | inconclusive: 70.8 µM [inhibitor, partial curve, poor fit] | –
19 | O=P(O)(O)CCCl | – | inactive: 0.748%
20 | COc1ccc(C=C2C(=O)N(C)C(=O)N(C)C2=O)cc1CSc1ccccn1 | active: 79.4 µM | –
21 | CNCC(O)c1cccc(OC(=O)c2ccccc2C)c1 (stereo unspecified) | – | inactive: -22.4%
22 | CN1CCN(C(=S)c2ccc([N+](=O)[O-])cc2)CC1 | inconclusive: 100 µM [inhibitor, single point] | –

Row | SMILES | Potency | max response, negative = inhibition
23 | CC[n+]1c(-c2ccccc2)c2cc(N)ccc2c2ccc(N)cc21 | active: 10 µM and active: 20 µM and active: 6.31 µM | –
24 | O=C1NC(=O)C(=Cc2ccc(-c3ccc(F)cc3O)o2)C(=O)N1 | active: 28.2 µM | –
25 | CCN(CC)c1ccc(N=Cc2c(O)n(CCc3ccc(OC)c(OC)c3)c(=O)[nH]c2=O)cc1 | inconclusive: 100 µM [inhibitor, single point] | –
26 | CCCCCCCCc1[se]c2ccccc2c1I | – | inactive: -3.55%
27 | C/C(O)=C1\C(=O)[C@@H]2[C@H]3c4c[nH]c5cccc(c45)C[C@H]3C(C)(C)N2C1=O | inconclusive: 56.2 µM [inhibitor, partial curve, poor fit] | –
28 | C[C@H]1O[C@@H](OC2CC[C@]3(C=O)[C@H]4CC[C@]5(C)[C@@H](C6=CC(=O)OC6)CC[C@]5(O)[C@@H]4CC[C@]3(O)C2)CC2OC(C)(C)OC21 (stereo partly specified) | – | inactive: -8.04%
29 | CCOC(=O)CC(NC(=O)C(Cc1ccc(N(CCCl)CCCl)cc1)NC(C)=O)C(=O)OCC (stereo unspecified) | inconclusive: 56.2 µM [inhibitor, partial curve, poor fit] | –
30 | Cn1cccc1/C=C1/C(=O)NC(=S)N(Cc2ccc(F)cc2)C1=O | inconclusive: 56.2 µM [inhibitor, partial curve, poor fit] | –
31 | CC1=NNC(=O)C1Br (stereo unspecified) | inconclusive: 10 µM [inhibitor, full curve, poor fit] | –
32 | C[C@@]12C(=O)N(Cc3ccco3)CC(=O)N1[C@H]1c3ccccc3OC[C@@H]1[C@@H]2c1ccccc1 | inconclusive: 70.8 µM [inhibitor, partial curve, poor fit] | –
33 | Clc1ccc2sc(C3CCNCC3)nc2c1 | – | inactive: 2.92%
34 | COc1cc(/C=C/C(=O)c2c(O)n(CCc3ccccc3)c(=O)[nH]c2=O)ccc1O | active: 44.7 µM | –
35 | CN1CC[C@@]2(CCCN(C(=O)c3csnn3)C2)C1 | active: 44.7 µM | –
36 | COc1ccc(Br)cc1CN1CCN(C(=O)Cc2ccccc2)CC1 | – | inactive: -1.72%
37 | CCOC(=O)Nc1ccc(NCc2ccc(F)cc2)nc1N | active: 6.31 µM | –
38 | CCN(CC)C(=O)N[C@@H]1C=C2c3cccc4[nH]cc(c34)C[C@H]2N(C)C1 | active: 39.8 µM | –
39 | O=C(O)CCCC[C@@H]1SC[C@@H]2NC(=O)N[C@@H]21 | inconclusive: 89.1 µM [inhibitor, partial curve, poor fit] | –
40 | CCOc1ccc(CC2C(=O)NC(=O)N(c3ccc(CC)cc3)C2=O)cc1 (stereo unspecified) | inconclusive: 4.47 µM [inhibitor, full curve] | –
41 | CN1C(=O)C(=Cc2ccccc2OCCOc2ccc([N+](=O)[O-])cc2)C(=O)N(C)C1=O | inconclusive: 56.2 µM [inhibitor, partial curve, poor fit] | –
42 | Cc1cc(S(=O)(=O)NC(C)C)ccc1OCC(=O)N1CCN(Cc2ccc3c(c2)OCO3)CC1 | – | inactive: 28.5%
43 | CSc1nc(Cl)c(Br)c(N2CC2)n1 | inconclusive: 89.1 µM [inhibitor, single point] | –
44 | COc1ccc(CCNCc2sccc2C)cc1 | inconclusive: 50.1 µM [inhibitor, partial curve, poor fit] | –

Row | SMILES | Potency | max response, negative = inhibition
45 | O=C1/C(=C/c2cc([N+](=O)[O-])ccc2Cl)N2CCC1CC2 | inconclusive: 89.1 µM [inhibitor, single point] | –
46 | COCCNC(=O)Cn1cc(C(=O)c2ccccc2F)c2ccccc21 | inconclusive: 89.1 µM [inhibitor, single point] | –
47 | C=CCC1C(=O)NC(=S)NC1=O | active: 89.1 µM | –
48 | CC(C)(C)c1ccc(-c2c(C(=O)O)c(C(=O)O)c3n2CSC3)cc1 | inconclusive: 89.1 µM [inhibitor, single point] | –
49 | COCCNC(=O)Cn1cc(/C=C2\C(=O)NC(=O)N(c3cccc(C)c3C)C2=O)c2ccccc21 | inconclusive: 50.1 µM [inhibitor, partial curve, poor fit] | –
50 | O=C(O)c1ccccc1-c1ccc(C=C2C(=O)N(c3ccccc3)C(=S)N(c3ccccc3)C2=O)o1 | active: 15.8 µM | –
51 | CCOP(=O)(OCC)C(NC(=O)c1cccc(C)c1)C(Cl)(Cl)Cl (stereo unspecified) | inconclusive: 20 µM [inhibitor, partial curve, poor fit] | –
52 | O=C(O)CCn1cc(C=C2C(=O)NC(=S)NC2=O)c(-c2cccc(Br)c2)n1 | active: 25.1 µM | –
53 | COc1cc2c(cc1OC)CN(c1ccc([N+](=O)[O-])c(C(F)(F)F)c1)CC2 | inconclusive: 70.8 µM [inhibitor, partial curve, poor fit] | –
54 | CCCCn1c(NS(=O)(=O)c2ccccc2)c(C(=O)OCC)c2nc3ccccc3nc21 | active: 44.7 µM | –
55 | CCN(CC)C(=O)Cn1cc(/C=C2\C(=O)NC(=O)N(c3ccccc3F)C2=O)c2ccccc21 | active: 79.4 µM | –
56 | O=C1NC(=O)N(Cc2ccc(F)cc2)C(=O)/C1=C\c1ccc(N2CCCC2)cc1 | active: 79.4 µM | –
57 | Cc1cccnc1-n1c(-c2ccco2)nc2ccccc2c1=O | – | inactive: -5.1%
58 | CCS(=O)CCSP(=O)(OC)OC (stereo unspecified) | inconclusive: 70.8 µM [inhibitor, partial curve, poor fit] | –
59 | C=CCn1c(O)c(C(C)=Nc2ccc(N(CC)CC)cc2)c(=O)[nH]c1=O | inconclusive: 79.4 µM [inhibitor, partial curve, poor fit] | –
60 | c1ccc(CCCN2CCN(CCOC(c3ccccc3)c3ccccc3)CC2)cc1 | inconclusive: 70.8 µM [inhibitor, partial curve, poor fit] | –
61 | Clc1ccccc1CN1CCN(c2cccc3[nH]ccc23)CC1 | inconclusive: 63.1 µM [inhibitor, partial curve, poor fit] | –
62 | CC(C)C[C@H]1C(=O)N2CCC[C@H]2[C@]2(O)O[C@](NC(=O)[C@@H]3C=C4c5cccc6[nH]c(Br)c(c56)C[C@H]4N(C)C3)(C(C)C)C(=O)N12 | active: 28.2 µM | –
63 | Cc1ccc(CC2C(=O)N(C)C(=O)N(C)C2=O)s1 | inconclusive: 79.4 µM [inhibitor, partial curve, poor fit] | –
64 | CN1C(=O)C(=Cc2coc3ccccc3c2=O)C(=O)N(C)C1=O | inconclusive: 56.2 µM [inhibitor, partial curve, poor fit] | –
65 | CCCN(CCC)c1c([N+](=O)[O-])cc(S(N)(=O)=O)cc1[N+](=O)[O-] | inconclusive: 20 µM [inhibitor, full curve] | –
66 | O=C(OC1Cc2c(O)cc(O)cc2OC1c1cc(O)c(O)c(O)c1)c1cc(O)c(O)c(O)c1 (stereo unspecified) | active: 50.1 µM | –
